From patent US20050037947A1, “INHIBITION OF DRUG BINDING TO SERUM ALBUMIN” (priority 2003, published 2005)
Some results were stated once for a whole list of compounds, not compound by compound.

Target: T1, human serum albumin (Homo sapiens, UniProt P02768)
T1 construct: purchased Aventis, Bridgewater, N.J. Albuminar
Assay: Serum albumin binding by surface plasmon resonance (BIACORE 3000)
Settings: SPR, immobilized serum albumin, 25° C., Req divided by molecular weight; ratio unmodified molecule / Fc chimeric protein
Method: Analysis of macromolecular interactions was performed using surface plasmon resonance as previously described (Frostell-Karlsson et al. 2000, J. Med. Chem. 43:1986). A BIACORE 3000 instrument (Biacore AB, Piscataway, N.J.) was used and all binding interactions were performed at 25° C. A carboxymethyl-modified dextran (CM5) sensor chip (Biacore AB, Piscataway, N.J.) was used for the analysis. Serum albumin (Albuminar, Aventis, Bridgewater, N.J.) was diluted to 100 μg/mL in 10 mM sodium acetate (pH 4.5) and immobilized to one flowcell of the sensor chip, using amine coupling as described (Frostell-Karlsson et al. 2000, J. Med. Chem. 43:1986). Final immobilization level was approximately 8500 Resonance Units (RU). A “mock-immobilized” surface using a separate flowcell was created using the same procedure in the absence of serum albumin and served as a reference for the binding studies. […]
The sensorgrams (RU versus time) generated for the mock-coated flowcell were automatically subtracted from the serum albumin-coated sensorgrams. Response at equilibrium (Req) was measured 30 seconds before the end of the injection phase and divided by the molecular weight of the analyte, total response as is in part, a function of molecular weight. […]

Substance: GnRH peptide: gonadatropin releasing hormone (GnRH) peptide
- human serum albumin binding of the unmodified molecule compared to the same molecule linked to Fc: more than 5 times
